## Results of single-concentration screens

Protein sequences, listed by entry. Tags and fused reporters are not part of them. Residues count along the entry.
UniProt Q8IDJ8, 1-583: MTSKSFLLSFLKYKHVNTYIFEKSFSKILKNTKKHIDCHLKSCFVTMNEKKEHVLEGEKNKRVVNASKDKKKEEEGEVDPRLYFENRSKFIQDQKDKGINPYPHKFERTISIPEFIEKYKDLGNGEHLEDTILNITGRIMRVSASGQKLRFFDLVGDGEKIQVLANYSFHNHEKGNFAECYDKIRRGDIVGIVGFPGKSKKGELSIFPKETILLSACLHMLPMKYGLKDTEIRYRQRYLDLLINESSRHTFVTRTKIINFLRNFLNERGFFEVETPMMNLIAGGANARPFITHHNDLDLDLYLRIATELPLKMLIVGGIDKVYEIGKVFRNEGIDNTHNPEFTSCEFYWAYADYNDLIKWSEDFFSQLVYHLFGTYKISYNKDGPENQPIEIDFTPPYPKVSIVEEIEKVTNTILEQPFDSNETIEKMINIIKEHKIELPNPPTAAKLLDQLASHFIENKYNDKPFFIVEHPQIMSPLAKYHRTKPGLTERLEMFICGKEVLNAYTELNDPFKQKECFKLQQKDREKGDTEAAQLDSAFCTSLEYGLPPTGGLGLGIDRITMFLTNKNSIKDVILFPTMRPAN
UniProt Q4DA54, 1-478: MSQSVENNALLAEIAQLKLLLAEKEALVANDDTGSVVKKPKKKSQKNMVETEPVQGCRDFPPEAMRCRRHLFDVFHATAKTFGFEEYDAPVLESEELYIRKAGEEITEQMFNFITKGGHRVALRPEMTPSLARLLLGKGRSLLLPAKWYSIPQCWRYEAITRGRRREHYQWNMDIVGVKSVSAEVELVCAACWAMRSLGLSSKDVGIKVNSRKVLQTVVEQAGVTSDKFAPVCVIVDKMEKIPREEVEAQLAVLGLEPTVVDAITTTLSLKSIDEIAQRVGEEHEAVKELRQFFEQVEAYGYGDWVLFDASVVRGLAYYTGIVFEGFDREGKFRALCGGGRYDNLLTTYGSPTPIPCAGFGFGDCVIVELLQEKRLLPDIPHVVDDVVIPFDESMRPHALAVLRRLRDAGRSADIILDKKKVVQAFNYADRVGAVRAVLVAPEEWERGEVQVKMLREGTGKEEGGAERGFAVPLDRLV

A: 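Cell assay of Leishmania donovani living inside macrophages; the read-out is not stated. Tested at 30 µM. The record gives no direction; compounds that gave an IC50 in retests scored well above the rest, so higher reads as stronger inhibition. Size under these conditions: about 69,000 compounds, about 1,000 of them at 50% or above in at least one test.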
B: 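Whole-parasite assay of Trypanosoma brucei over 72 hours; the read-out is not stated. Concentration: 30 µM. Higher reads as stronger inhibition (inferred: compounds with an IC50 in retests scored well above the rest). Values scatter widely below zero; nearly all retest evidence comes from the higher of the two concentrations used. About 64,000 compounds were tested under these conditions; 1.5% (about 940) showed 50% or more at least once.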
C: 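Assay of Toxoplasma gondii numbers, read through their beta-galactosidase reporter with a colour substrate. Concentration: 10 µM. Higher reads as fewer parasites (inferred from which compounds were picked for retests). Of about 67,000 compounds tested this way, about 260 (0.38%) reached 50% or more in at least one test.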
D: 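Enzyme assay of the cytosolic lysyl-tRNA synthetase in 384-well plates, read by luminescence. Target: Lysine-tRNA ligase, Plasmodium falciparum 3D7 (UniProt Q8IDJ8). Tested at 30 µM. Higher reads as stronger inhibition, judged from the few compounds that gave an IC50. About 69,000 compounds were tested under these conditions; 0.071% (about 49) showed 50% or more at least once.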
E: 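Histidine-tRNA ligase, Trypanosoma cruzi CL Brener (UniProt Q4DA54). Enzyme assay of histidyl-tRNA synthetase; the read-out is not stated. Concentration: 30 µM. Higher reads as stronger inhibition (inferred: compounds with an IC50 in retests scored well above the rest). Size under these conditions: about 69,000 compounds, about 31 of them at 50% or above in at least one test.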

Each number is a percent effect as filed.
The record does not define 0% and 100%; most values in the screen are far below 50% and negative numbers occur (in some assays of this library far below -100).
This is an unselected part of the compounds tested.
A dash means the value is not listed here; it may have been measured.

structure,A,B,C,D,E
CC(C)CN1CCC2(CC1)C(=O)Nc1ccc(C(=O)N(C)C)cc12.O=C(O)C(F)(F)F,33.96,24.95,6.433,-,-
CCSc1nsc(NC(=O)COc2ccc3c(c2)OCO3)n1,7.531,-13.25,14.71,-0.9547,-2.488
COc1cc(CNCCc2cnn(C)c2)cc2c1OCCO2,4.55,-10.93,-5.646,3.286,-0.3802
O=C(c1ccc(-n2cnnc2)nc1)N1CCCC(O)(CO)CC1 (stereo unspecified),-2.6,-28.86,11.39,0.5555,3.365
Cc1noc(C)c1C(C)NC(=O)N1CCN(c2cccs2)CC1 (stereo unspecified),6.033,-48.62,-1.242,-2.565,6.863
CS(=O)(=O)NC1CCN(c2cccc(F)c2C#N)CC1,-5.338,-11.9,-7.116,5.354,2.439
O=C1CO[C@@H]2CN(Cc3cccs3)C[C@H]2N1Cc1cccnc1,-,-,-,5.563,5.785
CCCNC(=O)CN1CCC(C(=O)Nc2cnn(CC)c2)CC1,16.12,-9.435,3.453,0.9814,2.273
Cc1cc(C)c2nc(CN3CCC(N4CCOC4=O)CC3)cc(O)c2c1,7.632,-32.76,-8.321,0.6413,8.163
CCN(CC)S(=O)(=O)N1CCc2nc(C3CCNCC3)ncc2C1,-,-,-,2.285,6.667
[H][C@@]12CCN(C3CCOCC3)C[C@]1([H])O[C@H](C(=O)N(C)C)C2,-4.867,-67.42,26.44,-,-
[H][C@@]12CCCO[C@]1([H])[C@@H](Oc1cccnc1)CN2C(=O)C1=CCCC1,-5.86,40.64,6.043,-,-
CS(=O)(=O)N1C[C@@H]2CC[C@H](C1)N(Cc1ccc3nsnc3c1)C2,-,-,-,-0.4909,1.02
Cc1ccccc1OCC(O)C(=O)N1CCC2(CC1)CN(C)C(=O)O2 (stereo unspecified),14.46,-17.37,-10.97,6.684,6.145
CN1CCCc2sc(C(=O)NC3CC3)nc21,6.37,-95.24,-8.169,1.947,10.93
CC(C)(C)CNS(=O)(=O)C1CS(=O)(=O)c2ccccc21 (stereo unspecified),-14.9,-45.97,-4.123,-1.193,-2.597
COc1cc(CNCc2ccnc(N3CCOCC3)c2)cc(Cl)c1OC,26.59,5.205,4.652,5.081,3.759
Cc1cc(C)nc(CN(C)c2nc(C3CCCC3)nc3c2cnn3C)c1,-17.73,-9.745,2.661,9.082,0.5025
O=C(O)C(F)(F)F.O=C(O)C(F)(F)F.[H][C@@]12OCCN(c3cc(OC)ncn3)[C@@]1([H])CC[C@@H]2Oc1cccnc1,18.67,-15.67,3.278,-,-
Br.Cc1ccc(N(CC(=O)c2ccc(Br)cc2)C2=NCCCCC2)cc1,57.51,102.1,26.29,-,-
Cc1cc(C(=O)NC2CCCOc3cc(Cl)ccc32)n(C)n1 (stereo unspecified),12.48,-9.417,18.64,-2.869,4.95
OCCCc1nncn1-c1cccc(C(F)(F)F)c1,36.92,12.03,4.773,6.888,7.2
O=C1C(N2CCOC3(CCCC3)C2)CCN1C1CC1 (stereo unspecified),-17.2,-4.134,0.5299,-0.6987,0
Cl.Fc1ccccc1Cn1c(C2CCNCC2)cc2cccnc21,43.21,37.09,7.68,-,-
O=C(C1CCC1)N1CCC2(CCNCC2)C1,-,-,-,-0.5277,1.942
CNc1ncc(CN(C)C(=O)[C@@]23CNC[C@@H]2CN(C(=O)C2CC2)C3)cn1,-,-,-,3.612,9.639
COCCC(=O)N1CCC(NC(=O)c2cscc2C)CC1,-2.901,-75.56,0.2157,-0.3447,5.732
CN(Cc1cc2n(n1)CCCN(C(=O)N1CCCC1)C2)Cc1nccs1,2.285,2.273,-4.225,-1.77,9.453
COc1cccc(OC2CN(C(=O)c3c(C)noc3C)C2)c1,-7.616,-24.62,13.02,5.62,3.627
COc1c(CNC2CCN(C(=O)C3CC3)CC2)c(C(C)C)nn1C,22.46,4.915,-7.847,5.075,3.788
c1cncc(CNCc2cccs2)c1,-,-,-,2.441,0.7692
CCN(Cc1noc(CC(C)C)n1)C[C@]1(O)CCCN2CCCC[C@@H]21,-,-,-,2.783,6.763
O=C(CC1CCCC1)N1CCCC1c1ccc(CN2CCOCC2)cn1 (stereo unspecified),7.793,0.6461,9.008,-2.107,3.448
Clc1ccc2cccnc2c1CN1CCn2c(nnc2C2CC2)C1,15.11,9.819,2.291,3.358,4.902
O=C(O)C(F)(F)F.[H][C@]12CCC[C@@]1(COCc1ccccn1)CN(C(=O)c1ccnnc1)C2,14.54,-12.92,-7.235,-,-
CC(C)(C)NCC(=O)N1CCCC(n2ccnc2)C1 (stereo unspecified),7.873,-106.8,-0.1193,4.988,14.29
O=C(CCOc1ccc(Br)cc1)N1CCN(c2cnccn2)CC1,-26.21,-,7.312,-1.97,3.704
c1ccc(-c2ncn(CCCN3CCOCC3)c2-c2ccncc2)cc1,11.86,6.275,36.16,1.767,1.676
CCn1nc(C)c(CNC(=O)C2COc3ccccc3C2)c1C (stereo unspecified),21.71,-101.1,5.165,0.4544,1.961
Cc1nn(C)cc1C(C)Nc1ncnc2sccc12 (stereo unspecified),8.726,-47.37,1.869,-0.09719,-0.578
COc1ccc(CN2CC(O)CN(C(=O)OCC(C)C)CC2=O)cc1 (stereo unspecified),-15.04,-20.02,3.113,1.881,8.989
Cn1c(CN2CCC(O)CC2)nnc1C1CCCN(C(=O)C2CNC2)C1 (stereo unspecified),-12.84,4.077,7.721,5.236,4.082
CCn1cnc(NC(=O)N2CCC(c3ccc(Cl)cc3)C2)n1 (stereo unspecified),-20.23,-24.04,-2.14,-3.631,2.463
CCn1cc(CN2C[C@@H]3CCCN3C[C@H]2CCSC)cn1,-,-,-,0.8899,5.993
CC(CCSc1ccccc1)N1CCN(C(=O)c2ccccc2O)CC1 (stereo unspecified),14.01,-31.61,-1.582,1.627,6.494
CCN1C[C@@H]2CN(C(=O)c3ccsc3)C[C@@H]2C1=O,-,-,-,7.357,7.843
[H][C@]12CC[C@]([H])(CN(Cc3cccnc3)C1)N(Cc1cccc(O)c1)C2,-26.1,-280.3,6.721,-,-
O=C(O)C(F)(F)F.[H][C@@]12CCN(Cc3cccc(C)c3)C[C@]1([H])[C@@H](CNC(=O)N(C)C)OC2,25.75,-1.924,20.35,-,-
CSc1ncccc1C(=O)NC(C)c1cccc(N2CCOC2=O)c1 (stereo unspecified),32.02,-63.05,-1.143,1.922,4.242
Cc1nn(C)cc1CN1CCCCCC1c1ccccc1Cl (stereo unspecified),-5.523,-45.41,22.75,-1.198,4.523
O=C(O)C(F)(F)F.O=C(O)C(F)(F)F.[H][C@@]12COC[C@]1([H])[C@@H](OCc1cccnc1)CN2C(=O)Cc1ccccn1,-3.31,-31.71,-2.302,-,-
COCC(=O)NC(C)Cc1cccc(OC)c1 (stereo unspecified),14.39,37.23,-18.49,2.413,2.662
CN(Cc1ncc[nH]1)c1nc(-c2ccccn2)nc2c1CCNCC2,0.4407,-30.97,0.5425,6.54,1.98
Cc1nc(-c2ccc(Cl)s2)sc1C(=O)NCCS(N)(=O)=O,12.65,25.12,4.954,-0.9716,2.682
COC(=O)C(CNC(=O)Nc1nncs1)Cc1ccc(O)cc1 (stereo unspecified),-3.463,3.956,-4.083,2.907,2.717
O=C(CC1CC1)N1C[C@H]2CCN[C@H]2C1,-,-,-,2.526,8.38
CC(C)c1cc(C2CCN(C(=O)Cn3cnc4ccccc43)CC2)[nH]n1,45.19,-44.45,13.55,3.921,-3.478
O=C1C[C@@H]2[C@H](CCN2Cc2ccccn2)N1Cc1ccncc1,-,-,-,5.059,7.767
CCOCC1CN(Cc2ccoc2)Cc2ncn(CC3CC3)c21 (stereo unspecified),13.65,-47.69,1.554,1.722,5.882
Cc1ccc(CN(C)c2nccc(-c3cn(C)nc3C)n2)o1,13.61,-3.477,-,10.51,9.195
Nc1ncccc1C(=O)NCc1ccc(Br)cc1,33.35,-,-1.535,9.22,4.142
CN(C)CC1CSCCCN1C(=O)Nc1ccc(C(C)(C)C)cc1 (stereo unspecified),28.93,12.65,0.2217,4.85,5.435

The first 5 entries again:

structure,A,B,C,D,E
CC(C)CN1CCC2(CC1)C(=O)Nc1ccc(C(=O)N(C)C)cc12.O=C(O)C(F)(F)F,33.96,24.95,6.433,-,-
CCSc1nsc(NC(=O)COc2ccc3c(c2)OCO3)n1,7.531,-13.25,14.71,-0.9547,-2.488
COc1cc(CNCCc2cnn(C)c2)cc2c1OCCO2,4.55,-10.93,-5.646,3.286,-0.3802
O=C(c1ccc(-n2cnnc2)nc1)N1CCCC(O)(CO)CC1 (stereo unspecified),-2.6,-28.86,11.39,0.5555,3.365
Cc1noc(C)c1C(C)NC(=O)N1CCN(c2cccs2)CC1 (stereo unspecified),6.033,-48.62,-1.242,-2.565,6.863

From ChEMBL document CHEMBL3988442, “University of Dundee, Small-Polar-MMV Screening Library” (2021).